According to patent publication US20060172360A1:
These are yes or no findings as the source states them, for the method shown. For part of these data: In cells and extracts the contact can be indirect. Some results given as binding are weak or reduced against the parent protein; the word gives no strength.

By UniProt entry, the sequences of proteins in these tests, tags left out.
UniProt O14733: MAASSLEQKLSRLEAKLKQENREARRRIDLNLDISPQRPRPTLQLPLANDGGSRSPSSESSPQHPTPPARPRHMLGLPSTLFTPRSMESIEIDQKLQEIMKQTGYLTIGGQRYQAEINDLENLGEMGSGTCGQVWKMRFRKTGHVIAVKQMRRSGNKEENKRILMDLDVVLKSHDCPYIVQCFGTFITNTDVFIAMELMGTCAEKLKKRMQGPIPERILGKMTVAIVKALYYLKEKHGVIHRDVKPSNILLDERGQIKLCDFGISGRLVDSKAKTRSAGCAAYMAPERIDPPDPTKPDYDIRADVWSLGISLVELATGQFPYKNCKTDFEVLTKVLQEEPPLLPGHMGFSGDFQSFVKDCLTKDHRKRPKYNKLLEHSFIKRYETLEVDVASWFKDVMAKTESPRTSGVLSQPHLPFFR
UniProt O96013: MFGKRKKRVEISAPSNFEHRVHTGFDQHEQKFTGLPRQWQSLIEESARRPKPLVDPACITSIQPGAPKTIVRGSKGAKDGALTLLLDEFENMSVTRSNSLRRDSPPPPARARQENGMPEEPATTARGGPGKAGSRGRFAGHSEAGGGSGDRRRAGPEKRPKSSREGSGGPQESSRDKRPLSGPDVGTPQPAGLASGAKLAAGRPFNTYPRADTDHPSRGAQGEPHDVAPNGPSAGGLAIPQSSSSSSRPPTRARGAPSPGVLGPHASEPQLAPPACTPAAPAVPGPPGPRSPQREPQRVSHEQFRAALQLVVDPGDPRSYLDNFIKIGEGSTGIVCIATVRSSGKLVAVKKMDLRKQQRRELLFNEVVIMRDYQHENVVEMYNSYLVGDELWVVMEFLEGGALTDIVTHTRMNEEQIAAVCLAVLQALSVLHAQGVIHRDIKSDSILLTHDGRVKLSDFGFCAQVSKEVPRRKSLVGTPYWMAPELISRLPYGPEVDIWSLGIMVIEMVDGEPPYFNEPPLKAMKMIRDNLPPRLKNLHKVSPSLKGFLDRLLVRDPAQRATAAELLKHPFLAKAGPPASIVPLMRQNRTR

Key:
[1] = biological target: HA-MKK7 (human MAP kinase kinase 7 ligated with HA-tag at its N-terminus) (human) (UniProt O14733); assay: co-immunoprecipitation and western blot (FIG. 3)
[2] = biological target: HA-MKK7 (human MAP kinase kinase 7 ligated with HA-tag at its N-terminus) (human) (UniProt O14733); assay: summary of co-immunoprecipitation and kinase assays
[3] = biological target: HA-MKK7 (human MAP kinase kinase 7 ligated with HA-tag at its N-terminus) (human) (UniProt O14733); assay: co-expression in HEK293T cells, immunoprecipitation with anti-FLAG M2 affinity gel, western blot with anti-HA

binding [1]: binds | binding [2]: binds | binding [3]: binds
Substance: FLAG-PAK4 (human p21-activated kinase 4 ligated with FLAG-tag at its N-terminus) (from UniProt O96013 1-591) (enzyme)
